The target in experiment [1] is T1, Nesprin3 (mouse (endogenous in testis)) (UniProt Q4FZC9).
T1 sequence: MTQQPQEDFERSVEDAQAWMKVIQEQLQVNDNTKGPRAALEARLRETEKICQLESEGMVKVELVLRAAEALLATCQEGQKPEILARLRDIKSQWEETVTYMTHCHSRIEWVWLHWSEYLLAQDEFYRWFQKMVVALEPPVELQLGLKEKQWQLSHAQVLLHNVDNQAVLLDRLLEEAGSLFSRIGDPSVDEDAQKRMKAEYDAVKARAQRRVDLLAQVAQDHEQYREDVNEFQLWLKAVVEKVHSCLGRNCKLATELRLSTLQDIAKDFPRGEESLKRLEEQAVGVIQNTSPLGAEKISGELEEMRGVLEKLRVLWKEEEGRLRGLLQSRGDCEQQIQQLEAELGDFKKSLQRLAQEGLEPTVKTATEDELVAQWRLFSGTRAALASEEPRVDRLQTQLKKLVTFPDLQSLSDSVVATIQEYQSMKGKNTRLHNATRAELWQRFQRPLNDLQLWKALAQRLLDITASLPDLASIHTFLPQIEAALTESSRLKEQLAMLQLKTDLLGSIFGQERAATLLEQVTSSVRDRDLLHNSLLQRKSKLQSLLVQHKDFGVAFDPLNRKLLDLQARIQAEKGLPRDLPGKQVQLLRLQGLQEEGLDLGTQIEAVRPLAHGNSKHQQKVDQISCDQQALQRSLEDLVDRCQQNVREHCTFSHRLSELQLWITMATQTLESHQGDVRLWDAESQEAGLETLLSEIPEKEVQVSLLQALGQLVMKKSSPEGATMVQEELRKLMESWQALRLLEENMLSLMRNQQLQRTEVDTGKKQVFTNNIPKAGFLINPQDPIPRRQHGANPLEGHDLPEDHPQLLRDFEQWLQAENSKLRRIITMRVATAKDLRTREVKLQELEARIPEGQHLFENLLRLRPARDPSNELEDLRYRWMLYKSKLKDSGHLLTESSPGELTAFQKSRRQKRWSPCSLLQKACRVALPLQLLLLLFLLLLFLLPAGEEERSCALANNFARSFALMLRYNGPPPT
Nature of the experiment: co-IP; lysate of WT mouse testicular tissue milled with liquid nitrogen (IP lysis solution with phosphatase inhibitors); 8 ug Sun5 or Nesprin3 antibody or mock IgG overnight at 4°C, Protein A/G magnetic beads, RIPA washes, acid elution, western blot.

Experiment [2] addresses T2, Nesprin3 (human (endogenous in HepG2)) (UniProt Q6ZMZ3).
T2 sequence: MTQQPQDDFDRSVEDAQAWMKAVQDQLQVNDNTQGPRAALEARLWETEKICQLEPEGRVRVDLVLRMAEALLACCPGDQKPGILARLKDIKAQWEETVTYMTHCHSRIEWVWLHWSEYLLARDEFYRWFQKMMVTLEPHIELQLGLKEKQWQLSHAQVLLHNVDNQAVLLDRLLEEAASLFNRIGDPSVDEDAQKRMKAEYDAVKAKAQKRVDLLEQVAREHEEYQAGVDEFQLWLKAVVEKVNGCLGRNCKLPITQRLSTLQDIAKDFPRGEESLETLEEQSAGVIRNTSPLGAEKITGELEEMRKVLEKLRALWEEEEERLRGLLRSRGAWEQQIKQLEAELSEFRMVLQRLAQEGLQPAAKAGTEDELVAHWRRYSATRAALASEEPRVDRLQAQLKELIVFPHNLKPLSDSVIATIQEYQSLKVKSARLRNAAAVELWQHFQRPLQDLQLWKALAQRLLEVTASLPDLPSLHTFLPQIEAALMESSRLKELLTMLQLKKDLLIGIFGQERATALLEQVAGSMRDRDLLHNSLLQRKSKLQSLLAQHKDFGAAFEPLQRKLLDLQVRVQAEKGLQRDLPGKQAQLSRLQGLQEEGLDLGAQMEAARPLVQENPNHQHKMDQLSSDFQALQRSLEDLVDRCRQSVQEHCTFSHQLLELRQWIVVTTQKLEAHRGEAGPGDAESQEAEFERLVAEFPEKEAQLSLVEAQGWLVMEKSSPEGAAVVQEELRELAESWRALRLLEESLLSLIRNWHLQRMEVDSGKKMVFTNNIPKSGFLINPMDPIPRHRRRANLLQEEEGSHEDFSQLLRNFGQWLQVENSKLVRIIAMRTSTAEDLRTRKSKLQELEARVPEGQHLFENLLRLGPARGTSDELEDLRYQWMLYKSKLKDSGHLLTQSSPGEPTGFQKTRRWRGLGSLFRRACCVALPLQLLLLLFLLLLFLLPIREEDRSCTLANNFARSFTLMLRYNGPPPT
Nature of the experiment: co-IP; lysate of HepG2 cells stably expressing SUN5-Flag (IP lysis solution with phosphatase inhibitors); 8 ug antibody (anti-Flag or anti-Nesprin3) or mock IgG overnight at 4°C, Protein A/G magnetic beads, RIPA washes, acid elution, western blot. On the technique in general: A western blot detects proteins with antibodies after separation by electrophoresis.

The next experiment has as its target T3, SUN5-Flag (UniProt Q8TC36).
T3 sequence: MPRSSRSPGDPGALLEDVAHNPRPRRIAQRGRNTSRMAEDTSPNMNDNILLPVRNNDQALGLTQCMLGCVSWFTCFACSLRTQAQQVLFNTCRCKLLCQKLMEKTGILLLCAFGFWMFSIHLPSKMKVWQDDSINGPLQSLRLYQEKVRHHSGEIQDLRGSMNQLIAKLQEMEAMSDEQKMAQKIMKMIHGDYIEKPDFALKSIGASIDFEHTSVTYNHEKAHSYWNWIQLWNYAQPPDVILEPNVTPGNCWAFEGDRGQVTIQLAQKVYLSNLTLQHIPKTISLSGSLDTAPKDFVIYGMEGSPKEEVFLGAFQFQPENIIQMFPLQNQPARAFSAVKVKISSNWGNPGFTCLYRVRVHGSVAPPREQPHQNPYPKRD
Described as above.

For experiment [3], the target named is T4, Sun5 (mouse (endogenous in testis)) (UniProt Q9DA32).
T4 sequence: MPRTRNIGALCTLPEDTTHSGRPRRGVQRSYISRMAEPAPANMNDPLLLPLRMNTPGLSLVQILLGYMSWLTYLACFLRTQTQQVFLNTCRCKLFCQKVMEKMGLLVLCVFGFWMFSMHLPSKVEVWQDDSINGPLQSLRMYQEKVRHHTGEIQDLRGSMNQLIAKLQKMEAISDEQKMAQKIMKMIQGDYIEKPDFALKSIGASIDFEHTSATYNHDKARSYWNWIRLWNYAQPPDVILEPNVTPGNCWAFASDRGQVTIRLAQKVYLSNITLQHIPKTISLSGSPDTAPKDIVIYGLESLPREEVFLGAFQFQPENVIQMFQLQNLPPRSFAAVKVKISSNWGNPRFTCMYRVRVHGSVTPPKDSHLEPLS
Nature of the experiment: co-IP; lysate of WT mouse testicular tissue milled with liquid nitrogen (IP lysis solution with phosphatase inhibitors); 8 ug Sun5 or Nesprin3 antibody or mock IgG overnight at 4°C, Protein A/G magnetic beads, RIPA washes, acid elution, western blot.

The values that follow come from publication PMC8276135.

These are yes or no findings as the source states them, for the method shown. Binding seen in cells or lysates may run through a third protein. Some results given as binding are weak or reduced against the parent protein; the word gives no strength. For some of these results: Tags and fused reporters may be left off the sequences shown.

B1: Sun5 (protein, UniProt Q9DA32 1-373)
chain: MPRTRNIGALCTLPEDTTHSGRPRRGVQRSYISRMAEPAPANMNDPLLLPLRMNTPGLSLVQILLGYMSWLTYLACFLRTQTQQVFLNTCRCKLFCQKVMEKMGLLVLCVFGFWMFSMHLPSKVEVWQDDSINGPLQSLRMYQEKVRHHTGEIQDLRGSMNQLIAKLQKMEAISDEQKMAQKIMKMIQGDYIEKPDFALKSIGASIDFEHTSATYNHDKARSYWNWIRLWNYAQPPDVILEPNVTPGNCWAFASDRGQVTIRLAQKVYLSNITLQHIPKTISLSGSPDTAPKDIVIYGLESLPREEVFLGAFQFQPENVIQMFQLQNLPPRSFAAVKVKISSNWGNPRFTCMYRVRVHGSVTPPKDSHLEPLS
On to B1, for which the binding result in experiment [1] was “binds”.

B2: SUN5-Flag (protein, UniProt Q8TC36 1-379)
chain: MPRSSRSPGDPGALLEDVAHNPRPRRIAQRGRNTSRMAEDTSPNMNDNILLPVRNNDQALGLTQCMLGCVSWFTCFACSLRTQAQQVLFNTCRCKLLCQKLMEKTGILLLCAFGFWMFSIHLPSKMKVWQDDSINGPLQSLRLYQEKVRHHSGEIQDLRGSMNQLIAKLQEMEAMSDEQKMAQKIMKMIHGDYIEKPDFALKSIGASIDFEHTSVTYNHEKAHSYWNWIQLWNYAQPPDVILEPNVTPGNCWAFEGDRGQVTIQLAQKVYLSNLTLQHIPKTISLSGSLDTAPKDFVIYGMEGSPKEEVFLGAFQFQPENIIQMFPLQNQPARAFSAVKVKISSNWGNPGFTCLYRVRVHGSVAPPREQPHQNPYPKRD
Take B2: the binding result in experiment [2] is given as “binds”.

B3: Nesprin3 (protein, UniProt Q6ZMZ3 1-975)
chain: MTQQPQDDFDRSVEDAQAWMKAVQDQLQVNDNTQGPRAALEARLWETEKICQLEPEGRVRVDLVLRMAEALLACCPGDQKPGILARLKDIKAQWEETVTYMTHCHSRIEWVWLHWSEYLLARDEFYRWFQKMMVTLEPHIELQLGLKEKQWQLSHAQVLLHNVDNQAVLLDRLLEEAASLFNRIGDPSVDEDAQKRMKAEYDAVKAKAQKRVDLLEQVAREHEEYQAGVDEFQLWLKAVVEKVNGCLGRNCKLPITQRLSTLQDIAKDFPRGEESLETLEEQSAGVIRNTSPLGAEKITGELEEMRKVLEKLRALWEEEEERLRGLLRSRGAWEQQIKQLEAELSEFRMVLQRLAQEGLQPAAKAGTEDELVAHWRRYSATRAALASEEPRVDRLQAQLKELIVFPHNLKPLSDSVIATIQEYQSLKVKSARLRNAAAVELWQHFQRPLQDLQLWKALAQRLLEVTASLPDLPSLHTFLPQIEAALMESSRLKELLTMLQLKKDLLIGIFGQERATALLEQVAGSMRDRDLLHNSLLQRKSKLQSLLAQHKDFGAAFEPLQRKLLDLQVRVQAEKGLQRDLPGKQAQLSRLQGLQEEGLDLGAQMEAARPLVQENPNHQHKMDQLSSDFQALQRSLEDLVDRCRQSVQEHCTFSHQLLELRQWIVVTTQKLEAHRGEAGPGDAESQEAEFERLVAEFPEKEAQLSLVEAQGWLVMEKSSPEGAAVVQEELRELAESWRALRLLEESLLSLIRNWHLQRMEVDSGKKMVFTNNIPKSGFLINPMDPIPRHRRRANLLQEEEGSHEDFSQLLRNFGQWLQVENSKLVRIIAMRTSTAEDLRTRKSKLQELEARVPEGQHLFENLLRLGPARGTSDELEDLRYQWMLYKSKLKDSGHLLTQSSPGEPTGFQKTRRWRGLGSLFRRACCVALPLQLLLLLFLLLLFLLPIREEDRSCTLANNFARSFTLMLRYNGPPPT
With B3, the binding entry with SUN5-Flag is given as “binds”.

B4: Nesprin3 (protein, UniProt Q4FZC9 1-975)
chain: MTQQPQEDFERSVEDAQAWMKVIQEQLQVNDNTKGPRAALEARLRETEKICQLESEGMVKVELVLRAAEALLATCQEGQKPEILARLRDIKSQWEETVTYMTHCHSRIEWVWLHWSEYLLAQDEFYRWFQKMVVALEPPVELQLGLKEKQWQLSHAQVLLHNVDNQAVLLDRLLEEAGSLFSRIGDPSVDEDAQKRMKAEYDAVKARAQRRVDLLAQVAQDHEQYREDVNEFQLWLKAVVEKVHSCLGRNCKLATELRLSTLQDIAKDFPRGEESLKRLEEQAVGVIQNTSPLGAEKISGELEEMRGVLEKLRVLWKEEEGRLRGLLQSRGDCEQQIQQLEAELGDFKKSLQRLAQEGLEPTVKTATEDELVAQWRLFSGTRAALASEEPRVDRLQTQLKKLVTFPDLQSLSDSVVATIQEYQSMKGKNTRLHNATRAELWQRFQRPLNDLQLWKALAQRLLDITASLPDLASIHTFLPQIEAALTESSRLKEQLAMLQLKTDLLGSIFGQERAATLLEQVTSSVRDRDLLHNSLLQRKSKLQSLLVQHKDFGVAFDPLNRKLLDLQARIQAEKGLPRDLPGKQVQLLRLQGLQEEGLDLGTQIEAVRPLAHGNSKHQQKVDQISCDQQALQRSLEDLVDRCQQNVREHCTFSHRLSELQLWITMATQTLESHQGDVRLWDAESQEAGLETLLSEIPEKEVQVSLLQALGQLVMKKSSPEGATMVQEELRKLMESWQALRLLEENMLSLMRNQQLQRTEVDTGKKQVFTNNIPKAGFLINPQDPIPRRQHGANPLEGHDLPEDHPQLLRDFEQWLQAENSKLRRIITMRVATAKDLRTREVKLQELEARIPEGQHLFENLLRLRPARDPSNELEDLRYRWMLYKSKLKDSGHLLTESSPGELTAFQKSRRQKRWSPCSLLQKACRVALPLQLLLLLFLLLLFLLPAGEEERSCALANNFARSFALMLRYNGPPPT
With B4, the binding result in experiment [3] is “binds”.
